Data: US20220380454A1
Results are given in words; binding and its absence hold for the method and conditions named. Binding seen in cells or lysates may run through a third protein. Some entries that bind do so weakly or less than the wild type. Tags and fused reporters may be left off the sequences shown.

Sequences of proteins named here, by UniProt entry; tags and fusion partners are left off. Residues count along the entry.
UniProt Q91ZI0, residues 32-3301: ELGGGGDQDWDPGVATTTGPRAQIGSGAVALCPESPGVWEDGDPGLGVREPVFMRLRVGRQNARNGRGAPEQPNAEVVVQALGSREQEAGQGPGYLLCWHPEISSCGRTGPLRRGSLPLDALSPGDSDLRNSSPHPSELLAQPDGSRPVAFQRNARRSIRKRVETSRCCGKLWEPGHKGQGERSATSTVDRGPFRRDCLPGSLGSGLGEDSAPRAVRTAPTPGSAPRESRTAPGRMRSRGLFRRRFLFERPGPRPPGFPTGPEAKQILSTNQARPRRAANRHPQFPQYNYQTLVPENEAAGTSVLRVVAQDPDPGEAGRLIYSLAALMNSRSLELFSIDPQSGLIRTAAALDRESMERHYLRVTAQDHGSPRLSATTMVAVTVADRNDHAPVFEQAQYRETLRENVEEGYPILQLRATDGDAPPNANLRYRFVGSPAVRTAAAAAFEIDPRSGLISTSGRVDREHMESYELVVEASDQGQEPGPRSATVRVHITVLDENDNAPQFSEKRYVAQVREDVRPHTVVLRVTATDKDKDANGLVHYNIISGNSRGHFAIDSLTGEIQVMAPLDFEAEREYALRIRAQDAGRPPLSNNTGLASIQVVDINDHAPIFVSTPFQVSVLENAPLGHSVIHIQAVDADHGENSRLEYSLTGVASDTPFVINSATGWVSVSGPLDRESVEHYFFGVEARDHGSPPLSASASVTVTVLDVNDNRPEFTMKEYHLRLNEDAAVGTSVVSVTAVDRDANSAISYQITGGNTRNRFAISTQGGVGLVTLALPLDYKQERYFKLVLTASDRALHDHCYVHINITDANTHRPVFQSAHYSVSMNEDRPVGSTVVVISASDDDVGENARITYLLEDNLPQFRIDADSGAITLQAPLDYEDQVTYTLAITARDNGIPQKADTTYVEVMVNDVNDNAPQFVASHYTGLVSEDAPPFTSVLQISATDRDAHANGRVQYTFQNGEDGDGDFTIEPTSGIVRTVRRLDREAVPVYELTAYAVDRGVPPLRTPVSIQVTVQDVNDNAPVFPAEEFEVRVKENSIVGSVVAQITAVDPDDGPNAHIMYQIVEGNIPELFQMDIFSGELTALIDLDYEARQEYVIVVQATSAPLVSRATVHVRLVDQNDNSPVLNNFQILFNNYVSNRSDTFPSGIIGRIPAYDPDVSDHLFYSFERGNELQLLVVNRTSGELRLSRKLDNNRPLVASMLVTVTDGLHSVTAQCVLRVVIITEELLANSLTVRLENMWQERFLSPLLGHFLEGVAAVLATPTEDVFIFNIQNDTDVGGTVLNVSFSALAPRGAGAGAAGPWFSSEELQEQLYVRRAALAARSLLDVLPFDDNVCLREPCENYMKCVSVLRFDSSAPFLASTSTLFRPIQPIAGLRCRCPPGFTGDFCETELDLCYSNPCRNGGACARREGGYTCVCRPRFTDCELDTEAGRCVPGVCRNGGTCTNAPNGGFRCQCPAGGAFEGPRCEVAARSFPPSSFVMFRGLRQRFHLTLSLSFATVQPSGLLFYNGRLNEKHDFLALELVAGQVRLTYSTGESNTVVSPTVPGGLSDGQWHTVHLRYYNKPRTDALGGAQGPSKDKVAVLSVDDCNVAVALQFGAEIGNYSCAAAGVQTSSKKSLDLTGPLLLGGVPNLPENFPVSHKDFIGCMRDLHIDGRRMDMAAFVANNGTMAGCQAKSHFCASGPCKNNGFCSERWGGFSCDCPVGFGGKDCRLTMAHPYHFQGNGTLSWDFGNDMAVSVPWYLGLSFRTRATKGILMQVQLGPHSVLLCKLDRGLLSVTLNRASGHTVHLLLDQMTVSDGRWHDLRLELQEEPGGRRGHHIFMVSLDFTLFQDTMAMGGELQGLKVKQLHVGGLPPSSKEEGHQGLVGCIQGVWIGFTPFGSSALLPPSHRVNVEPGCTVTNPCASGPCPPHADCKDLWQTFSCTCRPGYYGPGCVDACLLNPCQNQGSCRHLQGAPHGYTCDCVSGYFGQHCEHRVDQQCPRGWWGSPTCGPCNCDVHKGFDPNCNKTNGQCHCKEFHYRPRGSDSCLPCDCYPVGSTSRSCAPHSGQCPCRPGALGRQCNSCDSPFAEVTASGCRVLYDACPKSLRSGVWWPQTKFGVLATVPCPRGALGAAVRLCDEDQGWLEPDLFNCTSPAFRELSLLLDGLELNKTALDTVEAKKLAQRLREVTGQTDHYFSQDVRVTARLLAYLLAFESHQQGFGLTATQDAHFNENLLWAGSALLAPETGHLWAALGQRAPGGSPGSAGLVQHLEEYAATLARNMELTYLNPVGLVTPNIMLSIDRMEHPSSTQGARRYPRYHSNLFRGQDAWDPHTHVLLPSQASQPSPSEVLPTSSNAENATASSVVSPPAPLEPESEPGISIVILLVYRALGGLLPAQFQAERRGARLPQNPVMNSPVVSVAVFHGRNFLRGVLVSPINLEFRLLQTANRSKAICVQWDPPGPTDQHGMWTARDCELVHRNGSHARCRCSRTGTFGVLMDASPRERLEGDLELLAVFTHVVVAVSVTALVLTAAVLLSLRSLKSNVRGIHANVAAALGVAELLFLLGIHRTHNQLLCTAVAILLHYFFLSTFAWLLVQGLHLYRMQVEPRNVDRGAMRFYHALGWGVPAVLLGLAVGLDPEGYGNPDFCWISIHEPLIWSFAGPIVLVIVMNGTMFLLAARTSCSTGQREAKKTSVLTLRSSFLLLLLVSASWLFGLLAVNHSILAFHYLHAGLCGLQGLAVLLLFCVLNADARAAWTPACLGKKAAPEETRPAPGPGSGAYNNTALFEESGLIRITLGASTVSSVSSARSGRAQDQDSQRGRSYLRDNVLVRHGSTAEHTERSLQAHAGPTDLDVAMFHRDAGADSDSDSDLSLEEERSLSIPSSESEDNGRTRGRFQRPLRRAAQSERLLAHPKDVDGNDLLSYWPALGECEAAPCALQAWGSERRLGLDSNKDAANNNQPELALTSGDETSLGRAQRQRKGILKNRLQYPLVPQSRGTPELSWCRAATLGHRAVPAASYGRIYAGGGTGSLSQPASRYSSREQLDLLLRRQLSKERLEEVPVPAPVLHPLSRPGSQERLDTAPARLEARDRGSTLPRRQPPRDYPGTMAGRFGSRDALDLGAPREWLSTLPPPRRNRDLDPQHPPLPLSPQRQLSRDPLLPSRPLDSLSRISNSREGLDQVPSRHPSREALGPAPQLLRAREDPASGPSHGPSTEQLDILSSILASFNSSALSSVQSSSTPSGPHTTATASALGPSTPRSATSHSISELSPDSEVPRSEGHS

Key:
[1] = target: mouse Celsr3 (Celsr3-Flag) (mouse) (UniProt Q91ZI0); experiment: co-IP of the intercellular complex (IP: HA, blot Flag); untagged Celsr3 and Frizzled3-HA in cell a, Celsr3-flag in cell b, with or without Aβ oligomer
[2] = target: mouse Celsr3 (Celsr3-Flag) (mouse) (UniProt Q91ZI0); experiment: co-IP (IP: HA, blot Flag), quantified; Frizzled3-HA and Celsr3-flag in the same HEK293T cell, with or without Aβ oligomer
[3] = target: mouse Celsr3 (Celsr3-Flag) (mouse) (UniProt Q91ZI0); experiment: co-IP (IP: HA, blot Flag); mixed HEK293T cultures, Frizzled3-HA and Celsr3-Flag in cell a, with or without untagged Celsr3 in cell b
[4] = target: mouse Celsr3 (Celsr3-Flag) (mouse) (UniProt Q91ZI0); experiment: co-IP of the intercellular complex (IP: HA, blot Flag), quantified; Frizzled3-HA and untagged Celsr3 in cell a, Celsr3-flag with or without Flag-Vangl2 in cell b
[5] = target: mouse Celsr3 (Celsr3-Flag) (mouse) (UniProt Q91ZI0); experiment: co-IP of Frizzled3 with wild type Celsr3 expressed in the same HEK293T cells (reference of the deletion constructs)
[6] = target: mouse Celsr3 (Celsr3-Flag) (mouse) (UniProt Q91ZI0); experiment: co-IP of the intercellular complex (IP: HA, blot Flag), quantified; untagged Celsr3 and Frizzled3-HA in cell a, Celsr3-flag in cell b, with or without Aβ oligomer
[7] = target: mouse Celsr3 (Celsr3-Flag) (mouse) (UniProt Q91ZI0); experiment: co-IP (IP: HA, blot Flag), quantified; mixed HEK293T cultures, Frizzled3-HA and Celsr3-Flag in cell a, with or without Flag-Vangl2 in cell b
[8] = target: mouse Celsr3 (Celsr3-Flag) (mouse) (UniProt Q91ZI0); experiment: co-IP (IP: HA, blot Flag), quantified; Celsr3-Flag and Frizzled3-HA in cell a, with or without Flag-Vangl2 in cell b, with or without Aβ oligomer
[9] = target: mouse Celsr3 (Celsr3-Flag) (mouse) (UniProt Q91ZI0); experiment: co-IP (IP: HA, blot Flag); mixed HEK293T cultures, Celsr3-Flag and Frizzled3-HA in cell a, with or without Flag-Vangl2 in cell b, with or without Aβ oligomer
[10] = target: mouse Celsr3 (Celsr3-Flag) (mouse) (UniProt Q91ZI0); experiment: co-IP (IP: HA, blot Flag); Frizzled3-HA and Celsr3-flag in the same HEK293T cell, with or without Aβ oligomer
[11] = target: mouse Celsr3 (Celsr3-Flag) (mouse) (UniProt Q91ZI0); experiment: co-IP, legend of FIG. 9A
[12] = target: mouse Celsr3 (Celsr3-Flag) (mouse) (UniProt Q91ZI0); experiment: co-IP of the intercellular complex (IP: HA, blot Flag); mixed HEK293T cultures, Frizzled3-HA and untagged Celsr3 in cell a, Celsr3-flag with or without Flag-Vangl2 in cell b; the pull-down runs through the untagged Celsr3 of cell a
[13] = target: mouse Celsr3 (Celsr3-Flag) (mouse) (UniProt Q91ZI0); experiment: co-IP (IP: HA, blot Flag), quantified; mixed HEK293T cultures, Frizzled3-HA and Celsr3-Flag in cell a, with or without untagged Celsr3 in cell b

Measured: binding

B1: Frizzled3-HA (receptor, not shown: small tags and cut ends)
chain: HSLFSCEPITLRMCQDLPYNTTFMPNLLNHYDQQTAALAMEPFHPMVNLDCSRDFRPFLCALYAPICMEYGRVTLPCRRLCQRAYSECSKLMEMFGVPWPEDMECSRFPDCDEPYPRLVDLNLVGDPTEGAPVAVQRDYGFWCPRELKIDPDLGYSFLHVRDCSPPCPNMYFRREELSFARYFIGLISIICLSATLFTFLTFLIDVTRFRYPERPIIFYAVCYMMVSLIFFIGFLLEDRVACNASSPAQYKASTVTQGSHNKACTMLFMVLYFFTMAGSVWWVILTITWFLAAVPKWGSEAIEKKALLFHASAWGIPGTLTIILLAMNKIEGDNISGVCFVGLYDVDALRYFVLAPLCLYVVVGVSLLLAGIISLNRVRIEIPLEKENQDKLVKFMIRIGVFSILYLVPLLVVIGCYFYEQAYRGIWETTWIQERCREYHIPCPYQVTQMSRPDLILFLMKYLMALIVGIPSIFWVGSKKTCFEWASFFHGRRKKEIVNESRQVLQEPDFAQSLLRDPNTPIIRKSRGTSTQGTSTHASSTQLAMVDDQRSKAGSVHSKVSSYHGSLHRSRDGRYTPCSYRGMEERLPHGSMSRLTDHSRHSSSHRLNEQSRHSSIRDLSNNPMTHITHGTSMNRVIEEDGTSA
binds: all assays above
